Measurements as given in paper PMC3747510 (Scientific Reports, 2013).
≈ marks a conversion by molar mass, not a printed value.

Columns and labels:
E. coli = experiment: Broth microdilution MIC, E. coli; format: cell-based; settings: Escherichia coli, 24 h, read-out: MIC, Bacteria, E. coli
Method in brief: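 Broth microdilution per CLSI M7-A7 in Mueller Hinton broth. About […] E. coli was exposed to serial test-compound dilutions for 24 h at 37°C. MIC was the lowest concentration suppressing visible growth. Ampicillin was used to monitor susceptibility.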

[1] = system: E. coli strains containing pET30a-eclrs; experiment: MIC upon overexpression of EcLeuRS; format: cell-based; settings: Escherichia coli, read-out: MIC when EcLeuRS was overexpressed
Method in brief: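 E. coli transformants carrying pET30a-eclrs, with the empty pET30a vector strain as control. Both were induced with 10 μM IPTG and tested by broth microdilution in Mueller Hinton broth (37°C, 24 h). MICs were read as the lowest concentration without visible growth and compared between the two strains.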

CC1(C)S[C@@H]2[C@H](NC(=O)[C@H](N)c3ccccc3)C(=O)N2[C@H]1C(=O)O [Ampicillin, reference compound]
MIC (E. coli): 4 µg/mL (≈ 11.4 µM) | MIC [1]: 4 µg/mL (≈ 11.4 µM)
